Drawing on publication PMC11770101, “Nonenzymatic lysine D-lactylation induced by glyoxalase II substrate SLG dampens inflammatory immune responses” (Cell Research, 2025), this text covers binding for one substance.

The chains behind the UniProt entries cited, without tags or fusion partners. Where a name states a change or a piece, a line headed by the entry shows the natural chain unless it says otherwise.
UniProt Q04207: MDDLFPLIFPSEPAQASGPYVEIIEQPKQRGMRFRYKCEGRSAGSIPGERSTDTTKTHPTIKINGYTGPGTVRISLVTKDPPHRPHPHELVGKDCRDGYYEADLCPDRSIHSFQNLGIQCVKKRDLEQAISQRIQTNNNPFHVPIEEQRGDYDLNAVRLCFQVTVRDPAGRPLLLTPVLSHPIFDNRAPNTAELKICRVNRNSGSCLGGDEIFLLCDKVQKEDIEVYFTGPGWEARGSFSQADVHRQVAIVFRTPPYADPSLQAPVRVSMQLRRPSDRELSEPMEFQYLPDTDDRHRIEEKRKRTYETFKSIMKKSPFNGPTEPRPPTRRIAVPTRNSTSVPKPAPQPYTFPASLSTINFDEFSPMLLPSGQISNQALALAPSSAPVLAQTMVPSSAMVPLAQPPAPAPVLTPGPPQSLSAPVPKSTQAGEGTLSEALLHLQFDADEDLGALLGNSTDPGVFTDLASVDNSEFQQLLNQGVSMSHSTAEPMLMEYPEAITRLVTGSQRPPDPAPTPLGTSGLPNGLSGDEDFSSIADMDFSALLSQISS
UniProt Q9Z1E3: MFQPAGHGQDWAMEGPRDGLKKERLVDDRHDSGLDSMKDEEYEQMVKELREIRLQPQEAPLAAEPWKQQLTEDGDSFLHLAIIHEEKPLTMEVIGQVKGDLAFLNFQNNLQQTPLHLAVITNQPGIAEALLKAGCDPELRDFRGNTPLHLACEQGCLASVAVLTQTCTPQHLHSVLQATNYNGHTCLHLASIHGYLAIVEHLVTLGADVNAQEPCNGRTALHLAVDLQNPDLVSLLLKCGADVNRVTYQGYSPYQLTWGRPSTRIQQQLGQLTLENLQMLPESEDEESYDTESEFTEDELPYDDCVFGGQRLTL

These are yes or no findings as the source states them, for the method shown. Binding seen in cells or lysates may run through a third protein. Some results given as binding are weak or reduced against the parent protein; the word gives no strength.

The target of test [1] is Flag-tagged K310R mutant RelA (mouse) (UniProt Q04207). As to the kind of experiment: co-IP; Flag-RelA (WT, K310R or lacK310) held on anti-Flag M2 magnetic beads, incubated with 1 mM SLG (150 mM NaCl, 50 mM Tris-HCl, pH 8.0; 37 °C, 3 h) or buffer alone; equal masses of RelA then incubated with macrophage lysate supernatant at 4 °C for 4 h, washed three times, immunoblot; only the target purified. Background: A western blot detects proteins with antibodies after separation by electrophoresis.

For test [2], the target named is Flag-tagged WT RelA (mouse) (UniProt Q04207). The test is described as above.

Regarding IκB (from UniProt Q9Z1E3 1-314), the binding entry in test [1] and in test [2] was “binds” in each case.
